These are yes or no findings as the source states them, for the method shown. Binding seen in cells or lysates may run through a third protein. Some entries that bind do so weakly or less than the wild type. For part of these data: Tags and fused reporters may be left off the sequences shown.
Columns and labels:
[1] = molecular target: T1, HA-Ste11 R305A (non-methylatable mutant) (S. cerevisiae) (UniProt P23561); assay: co-IP; yeast extract (200 ug) on anti-HA magnetic beads, 4°C, 30 min; 50 mM Na-phosphate pH 8.0, 300 mM NaCl, 0.01% Tween-20; western blot
T1 sequence: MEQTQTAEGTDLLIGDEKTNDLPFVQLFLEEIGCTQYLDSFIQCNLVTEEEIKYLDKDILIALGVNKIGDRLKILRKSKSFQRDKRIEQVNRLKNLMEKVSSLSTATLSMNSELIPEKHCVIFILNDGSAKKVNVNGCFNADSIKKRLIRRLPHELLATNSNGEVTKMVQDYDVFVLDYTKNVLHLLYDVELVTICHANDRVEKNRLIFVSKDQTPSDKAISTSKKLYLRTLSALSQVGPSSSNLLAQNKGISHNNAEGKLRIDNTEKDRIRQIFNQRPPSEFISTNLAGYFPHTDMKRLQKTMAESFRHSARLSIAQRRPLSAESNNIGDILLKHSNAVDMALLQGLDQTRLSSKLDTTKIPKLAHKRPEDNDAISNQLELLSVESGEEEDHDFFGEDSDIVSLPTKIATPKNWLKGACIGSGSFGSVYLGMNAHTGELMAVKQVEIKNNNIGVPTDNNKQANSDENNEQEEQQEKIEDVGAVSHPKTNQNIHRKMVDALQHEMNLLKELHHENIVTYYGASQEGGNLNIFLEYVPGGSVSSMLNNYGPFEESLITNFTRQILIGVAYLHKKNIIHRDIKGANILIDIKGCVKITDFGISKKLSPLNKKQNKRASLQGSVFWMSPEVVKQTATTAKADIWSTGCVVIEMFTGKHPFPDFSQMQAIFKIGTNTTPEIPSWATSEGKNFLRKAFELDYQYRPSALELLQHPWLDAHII

Amino acid sequences for entries named in this document (tags omitted). A change or cut given only in a name is not applied to a line headed by its entry.
UniProt P47079: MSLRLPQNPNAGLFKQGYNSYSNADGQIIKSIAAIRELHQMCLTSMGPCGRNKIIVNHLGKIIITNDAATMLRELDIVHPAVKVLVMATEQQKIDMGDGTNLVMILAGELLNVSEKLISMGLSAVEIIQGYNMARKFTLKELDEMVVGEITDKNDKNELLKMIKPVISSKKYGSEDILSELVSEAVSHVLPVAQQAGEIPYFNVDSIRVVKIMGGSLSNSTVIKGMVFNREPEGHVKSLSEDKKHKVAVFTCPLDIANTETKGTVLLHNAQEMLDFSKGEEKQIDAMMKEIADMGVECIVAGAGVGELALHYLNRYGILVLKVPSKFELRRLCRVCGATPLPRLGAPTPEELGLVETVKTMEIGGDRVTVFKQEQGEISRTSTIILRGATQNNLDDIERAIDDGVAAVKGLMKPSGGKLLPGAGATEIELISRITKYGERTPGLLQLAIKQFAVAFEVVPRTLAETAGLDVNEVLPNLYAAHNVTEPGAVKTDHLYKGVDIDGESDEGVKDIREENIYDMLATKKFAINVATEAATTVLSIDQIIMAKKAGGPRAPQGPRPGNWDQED
UniProt P10591: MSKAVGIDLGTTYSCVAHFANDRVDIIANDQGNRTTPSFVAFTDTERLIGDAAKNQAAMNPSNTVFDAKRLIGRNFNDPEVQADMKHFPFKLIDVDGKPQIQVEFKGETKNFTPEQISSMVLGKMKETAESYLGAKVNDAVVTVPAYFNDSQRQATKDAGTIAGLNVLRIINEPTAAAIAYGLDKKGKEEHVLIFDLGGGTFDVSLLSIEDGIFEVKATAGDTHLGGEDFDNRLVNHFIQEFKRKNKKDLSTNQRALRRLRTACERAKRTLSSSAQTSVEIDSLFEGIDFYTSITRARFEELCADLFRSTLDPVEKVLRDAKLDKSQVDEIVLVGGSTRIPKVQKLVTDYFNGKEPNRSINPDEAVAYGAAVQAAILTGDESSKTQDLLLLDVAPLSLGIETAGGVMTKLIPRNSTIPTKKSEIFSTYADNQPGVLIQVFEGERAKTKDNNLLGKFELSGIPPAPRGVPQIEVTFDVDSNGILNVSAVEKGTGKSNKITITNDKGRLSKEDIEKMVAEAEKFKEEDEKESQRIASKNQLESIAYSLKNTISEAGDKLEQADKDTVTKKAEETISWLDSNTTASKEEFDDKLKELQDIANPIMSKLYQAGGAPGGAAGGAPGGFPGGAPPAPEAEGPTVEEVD
UniProt P25491: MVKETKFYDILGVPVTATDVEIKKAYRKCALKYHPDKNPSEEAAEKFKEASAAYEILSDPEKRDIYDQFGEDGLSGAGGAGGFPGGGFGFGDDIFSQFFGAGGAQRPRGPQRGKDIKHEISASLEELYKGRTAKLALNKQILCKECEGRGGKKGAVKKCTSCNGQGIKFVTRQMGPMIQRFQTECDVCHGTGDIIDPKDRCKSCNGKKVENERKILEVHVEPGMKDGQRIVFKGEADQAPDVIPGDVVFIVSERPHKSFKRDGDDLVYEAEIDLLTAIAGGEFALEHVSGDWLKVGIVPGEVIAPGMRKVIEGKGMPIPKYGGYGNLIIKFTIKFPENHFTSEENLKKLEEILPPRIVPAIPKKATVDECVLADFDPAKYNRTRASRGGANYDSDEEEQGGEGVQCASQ

[2] = molecular target: T2, Ura8 with an HA epitope tag at the carboxy terminus (S. cerevisiae) (UniProt P38627); assay: as above
T2 sequence: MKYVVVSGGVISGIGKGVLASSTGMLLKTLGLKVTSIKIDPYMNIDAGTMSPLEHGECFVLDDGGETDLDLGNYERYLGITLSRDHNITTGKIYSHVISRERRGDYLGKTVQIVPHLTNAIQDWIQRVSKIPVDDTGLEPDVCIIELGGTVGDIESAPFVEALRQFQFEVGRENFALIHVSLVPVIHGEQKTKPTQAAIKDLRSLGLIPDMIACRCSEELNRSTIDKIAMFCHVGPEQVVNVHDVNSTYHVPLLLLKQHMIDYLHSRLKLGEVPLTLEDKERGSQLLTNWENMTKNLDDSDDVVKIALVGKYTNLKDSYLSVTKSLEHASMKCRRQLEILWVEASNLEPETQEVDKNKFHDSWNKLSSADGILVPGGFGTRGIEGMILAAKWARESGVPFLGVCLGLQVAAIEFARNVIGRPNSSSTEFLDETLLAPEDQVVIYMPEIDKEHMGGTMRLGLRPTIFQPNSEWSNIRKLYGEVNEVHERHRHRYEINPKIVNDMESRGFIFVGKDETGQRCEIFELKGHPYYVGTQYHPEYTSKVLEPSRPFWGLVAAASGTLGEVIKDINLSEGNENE

[3] = molecular target: Cct8 with an HA epitope tag at the carboxy terminus (S. cerevisiae) (UniProt P47079); assay: as above
[4] = molecular target: T3, Mtw1 Y86F (non-phosphorylatable mutant) (S. cerevisiae) (UniProt P39731); assay: co-IP; yeast extract (200 ug) on anti-Flag M2 magnetic beads, 4°C overnight; 50 mM Na-phosphate pH 8.0, 300 mM NaCl, 0.01% Tween-20; eluted with 3x FLAG peptide; western blot
T3 sequence: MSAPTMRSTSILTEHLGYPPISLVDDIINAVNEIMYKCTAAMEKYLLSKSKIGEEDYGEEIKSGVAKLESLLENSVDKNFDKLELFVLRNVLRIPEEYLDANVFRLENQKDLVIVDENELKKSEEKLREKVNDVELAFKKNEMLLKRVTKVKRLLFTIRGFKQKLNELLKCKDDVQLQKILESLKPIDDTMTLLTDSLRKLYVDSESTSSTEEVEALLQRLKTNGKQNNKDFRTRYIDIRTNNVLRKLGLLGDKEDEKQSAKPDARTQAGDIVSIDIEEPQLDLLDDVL

[5] = molecular target: FLAG-Ssa1 V435F (substrate-binding deficient mutant) (S. cerevisiae) (UniProt P10591); assay: as above
[6] = molecular target: Ssa1 wild type, epitope-tagged (FLAG-Ssa1, GFP-Ssa1, HA-Ssa1) (S. cerevisiae) (UniProt P10591); assay: as above

Measured: binding

Ssa1 (endogenous, detected with anti-Ssa1) (from UniProt P10591 1-642)
binds: [1] | [2] | [3] | [4]

Ydj1 co-chaperone (from UniProt P25491 1-409)
not listed: [4]
binds: all other assays above
